Measurements reported in article PMC7819943, “Rice protein-binding microarrays: a tool to detect cis-acting elements near promoter regions in rice”.
The list shows a part of the results.

These sequences were tested against T1, OsSMF1 (Oryza sativa, UniProt Q6ZLB0 1-436) (assay: protein-binding microarray (RPBM); PBS, 2% BSA, 51.3 ng/ul salmon testes DNA, 50 uM zinc acetate, 200 nM TF, 25 C, 1 h; high values mean tight binding). Details: protein: recombinant; tags: N-terminal polyhistidine and DsRed monomer fusion (pET32a); chain copies: 2; label: CyDye5-dUTP incorporated in the synthesized complementary strand; 3' TTTTT single-stranded linker to array surface; dsDNA, one strand shown.
T1 sequence: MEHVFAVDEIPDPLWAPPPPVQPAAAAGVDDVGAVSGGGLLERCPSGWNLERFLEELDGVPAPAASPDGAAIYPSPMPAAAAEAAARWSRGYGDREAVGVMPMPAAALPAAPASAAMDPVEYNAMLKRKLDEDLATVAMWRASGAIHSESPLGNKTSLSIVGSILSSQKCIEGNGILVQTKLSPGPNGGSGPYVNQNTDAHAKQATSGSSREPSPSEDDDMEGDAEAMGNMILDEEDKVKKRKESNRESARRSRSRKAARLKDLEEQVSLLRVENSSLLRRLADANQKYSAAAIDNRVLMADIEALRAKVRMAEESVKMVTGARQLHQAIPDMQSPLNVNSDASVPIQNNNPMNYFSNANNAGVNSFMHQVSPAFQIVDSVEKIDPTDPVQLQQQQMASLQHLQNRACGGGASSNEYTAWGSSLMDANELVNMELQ
How it was run: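 The binding signal is fluorescence intensity per array feature (arbitrary units). Readings came from an Axon 4000B scanner after a washed, 2% BSA-blocked, double-stranded custom Agilent array had been incubated for 1 h at 25 °C with 200 nM protein and 50 µM zinc acetate. The protein was a Ni–NTA-purified transcription factor fused N-terminally to polyhistidine and DsRed, expressed in E. coli BL21-CodonPlus.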

Sequence | binding signal
CCCATGACATGGCACCATTACATCACTCTCTCTCTCTCGCCGGAGTCACCTAGTGCAG | 8330 fluorescence intensity (a.u.)
CTCCGTTACCGCGTGAGACCGCATGGTCTTTCGCCGCGTGCGGAGTCACCTAGTGCAG | 3410 fluorescence intensity (a.u.)
GTAGATTCAAACTTTATCCGAAATAACTGGTGGATATTTGCGGAGTCACCTAGTGCAG | 4140 fluorescence intensity (a.u.)
AGAGCCGCTCCGGTAGAGACACGTGTGCCGGAAGCAACGGCGGAGTCACCTAGTGCAG | 8710 fluorescence intensity (a.u.)
TCGAGATCCCTAAACTTGCTTTATTGTATCATCCCGGTCTCGGAGTCACCTAGTGCAG | 3750 fluorescence intensity (a.u.)
AGCCACACACGCACGCCGGCCACGATAACCCATCCTAGCACGGAGTCACCTAGTGCAG | 3370 fluorescence intensity (a.u.)
AAGTACGTATGTGTTGTAAGCGTCTACATTTGTAACGTGTCGGAGTCACCTAGTGCAG | 3770 fluorescence intensity (a.u.)
TGTTTCTGCTGGGATGGTTCAGTGGGGTGGAATGCCAGCTCGGAGTCACCTAGTGCAG | 3720 fluorescence intensity (a.u.)
ACAGTGATTTGTATCTTTGTCAGCACTATACATGAAAATACGGAGTCACCTAGTGCAG | 3220 fluorescence intensity (a.u.)
AAATGGCTGCTGCTCGTCGCCACGTGCTCCGGGTAAACCCCGGAGTCACCTAGTGCAG | 6440 fluorescence intensity (a.u.)
ATCTCATGAGTTAACCCCGGTCAATTCATCTACTTCGACTCGGAGTCACCTAGTGCAG | 7310 fluorescence intensity (a.u.)
GGCTGTTTGAGAAGGTGATGTCACGAAGCAGGGTCTGAGGCGGAGTCACCTAGTGCAG | 5600 fluorescence intensity (a.u.)
CGATCCCTGGGCAGCGTGGTTGATTTGCCTCCACCACTGGCGGAGTCACCTAGTGCAG | 20400 fluorescence intensity (a.u.)
GGTCTCACGGGCTCACGGTGACGGATGCGATTTTATGCCACGGAGTCACCTAGTGCAG | 5880 fluorescence intensity (a.u.)
TGTCCGGTCGTTTGAAAACTAGAAATGCTTTTCTACCCGCCGGAGTCACCTAGTGCAG | 8800 fluorescence intensity (a.u.)
GCTTTGAGCCCAACTGGATGTATTGAGCCTACGTGGGCTGCGGAGTCACCTAGTGCAG | 3390 fluorescence intensity (a.u.)
CCGTCGCCGGCGGCGGATCGGCCCCACATCACCTCGGCCTCGGAGTCACCTAGTGCAG | 3250 fluorescence intensity (a.u.)
ACAACATATGGGTCCCATCTACTGACTCAACTAGTCAACCCGGAGTCACCTAGTGCAG | 3760 fluorescence intensity (a.u.)
TGGCTTCACTTGCAACGGTACAAGAACCACCATCACTTCCCGGAGTCACCTAGTGCAG | 40100 fluorescence intensity (a.u.)
AATCGGATTACATTGGACCACGGGACGTGTCAGATCTTTTCGGAGTCACCTAGTGCAG | 5650 fluorescence intensity (a.u.)
AAGATTAACTAAGATAGTTACGTGTAATTCTCTTGCGTGTCGGAGTCACCTAGTGCAG | 3540 fluorescence intensity (a.u.)

Sequence | binding signal
GACTTTAATGATGCTGACACCGGCTTAATTAGTATTGCGGCGGAGTCACCTAGTGCAG | 3420 fluorescence intensity (a.u.)
GTCAGAATTTGCTGCCTTGTCATCAGGATCCGCTTTGGCACGGAGTCACCTAGTGCAG | 9260 fluorescence intensity (a.u.)
TACTTTCAACTCTAACTTGAAAACTTTCAACTTTGACTTGCGGAGTCACCTAGTGCAG | 3860 fluorescence intensity (a.u.)
ATCAATGTGGCTGCCATGGTTGCCTTGCGTGGAGGCACTACGGAGTCACCTAGTGCAG | 3950 fluorescence intensity (a.u.)
AACCCAACACGGCGGCGGCTGCGGGCGGTGACAATGACCACGGAGTCACCTAGTGCAG | 3720 fluorescence intensity (a.u.)
CCGAAACAACACACAGGTCATCCGGCCGCTCTCTTCTTTGCGGAGTCACCTAGTGCAG | 4620 fluorescence intensity (a.u.)
CAGTATTAGCAGCCATCAGAAGCACCAAACAAATTTCATCCGGAGTCACCTAGTGCAG | 3300 fluorescence intensity (a.u.)
TCGGCGATCCGACACGTCGCGTTGCTCTTCGCAATCGTGTCGGAGTCACCTAGTGCAG | 4220 fluorescence intensity (a.u.)
ATACGCCGAAACATTTGCACGTAATGCCTCCGTGGCGTCGCGGAGTCACCTAGTGCAG | 7770 fluorescence intensity (a.u.)
CAAACGGGCGTGGCACATCGATCGTCCGTCCGTGTTCTTGCGGAGTCACCTAGTGCAG | 4030 fluorescence intensity (a.u.)
CGGATTGCCACGTTGTTCAAAACCGCTCTGAATTGGTTCGCGGAGTCACCTAGTGCAG | 6820 fluorescence intensity (a.u.)
CTTGTGTTCTTGATCCTGCAATTGCTGTCACACTAGCAAACGGAGTCACCTAGTGCAG | 16000 fluorescence intensity (a.u.)
CATGCCTCTCGTCACTACTCGTCAGTCGTCAGTAGCAAAGCGGAGTCACCTAGTGCAG | 4890 fluorescence intensity (a.u.)
CTGTTATCTTTCAATAAACCAAGGGAATTTTAGTTTGTTCCGGAGTCACCTAGTGCAG | 33200 fluorescence intensity (a.u.)
CACGCGGCGCTCCGCCTCGCCACGCGTATATGACCATATACGGAGTCACCTAGTGCAG | 4080 fluorescence intensity (a.u.)
CTGGTTGGCTGGTTCTTCAGGATTTGGATCTGTGGTCCTGCGGAGTCACCTAGTGCAG | 3280 fluorescence intensity (a.u.)
GAGGACGCCGACGAGGCGGCCCGCTGCGGCCACGTGGCGCCGGAGTCACCTAGTGCAG | 23400 fluorescence intensity (a.u.)
ATTAGTACCTGAACACCCCATGCGATACCGTATATAATACCGGAGTCACCTAGTGCAG | 5040 fluorescence intensity (a.u.)
CATAATTGTTTTCTGAGTAAATTTCACAAACTGCAATTGTCGGAGTCACCTAGTGCAG | 20800 fluorescence intensity (a.u.)
CACCACGCGTTCACACGGCCACGTCAGCCTACTACGCCTGCGGAGTCACCTAGTGCAG | 23700 fluorescence intensity (a.u.)
CTCTTATCAGGTGATGATTGTGGACTATAAACTGACCTACCGGAGTCACCTAGTGCAG | 3900 fluorescence intensity (a.u.)

In another format: entries from further up.
Sequence	binding signal
CAAACGGGCGTGGCACATCGATCGTCCGTCCGTGTTCTTGCGGAGTCACCTAGTGCAG	4030 fluorescence intensity (a.u.)
CTGTTATCTTTCAATAAACCAAGGGAATTTTAGTTTGTTCCGGAGTCACCTAGTGCAG	33200 fluorescence intensity (a.u.)
